Source: PMC10542350, “Structural basis of nucleosome deacetylation and DNA linker tightening by Rpd3S histone deacetylase complex” (Cell Research, 2023)
These are yes or no findings as the source states them, for the method shown. Some entries that bind do so weakly or less than the wild type. For part of these data: Tags and fused reporters may be left off the sequences shown.

Sequences of proteins named here, by UniProt entry; tags and fusion partners are left off. Residues count along the entry.
UniProt P22579, residues 214-1536: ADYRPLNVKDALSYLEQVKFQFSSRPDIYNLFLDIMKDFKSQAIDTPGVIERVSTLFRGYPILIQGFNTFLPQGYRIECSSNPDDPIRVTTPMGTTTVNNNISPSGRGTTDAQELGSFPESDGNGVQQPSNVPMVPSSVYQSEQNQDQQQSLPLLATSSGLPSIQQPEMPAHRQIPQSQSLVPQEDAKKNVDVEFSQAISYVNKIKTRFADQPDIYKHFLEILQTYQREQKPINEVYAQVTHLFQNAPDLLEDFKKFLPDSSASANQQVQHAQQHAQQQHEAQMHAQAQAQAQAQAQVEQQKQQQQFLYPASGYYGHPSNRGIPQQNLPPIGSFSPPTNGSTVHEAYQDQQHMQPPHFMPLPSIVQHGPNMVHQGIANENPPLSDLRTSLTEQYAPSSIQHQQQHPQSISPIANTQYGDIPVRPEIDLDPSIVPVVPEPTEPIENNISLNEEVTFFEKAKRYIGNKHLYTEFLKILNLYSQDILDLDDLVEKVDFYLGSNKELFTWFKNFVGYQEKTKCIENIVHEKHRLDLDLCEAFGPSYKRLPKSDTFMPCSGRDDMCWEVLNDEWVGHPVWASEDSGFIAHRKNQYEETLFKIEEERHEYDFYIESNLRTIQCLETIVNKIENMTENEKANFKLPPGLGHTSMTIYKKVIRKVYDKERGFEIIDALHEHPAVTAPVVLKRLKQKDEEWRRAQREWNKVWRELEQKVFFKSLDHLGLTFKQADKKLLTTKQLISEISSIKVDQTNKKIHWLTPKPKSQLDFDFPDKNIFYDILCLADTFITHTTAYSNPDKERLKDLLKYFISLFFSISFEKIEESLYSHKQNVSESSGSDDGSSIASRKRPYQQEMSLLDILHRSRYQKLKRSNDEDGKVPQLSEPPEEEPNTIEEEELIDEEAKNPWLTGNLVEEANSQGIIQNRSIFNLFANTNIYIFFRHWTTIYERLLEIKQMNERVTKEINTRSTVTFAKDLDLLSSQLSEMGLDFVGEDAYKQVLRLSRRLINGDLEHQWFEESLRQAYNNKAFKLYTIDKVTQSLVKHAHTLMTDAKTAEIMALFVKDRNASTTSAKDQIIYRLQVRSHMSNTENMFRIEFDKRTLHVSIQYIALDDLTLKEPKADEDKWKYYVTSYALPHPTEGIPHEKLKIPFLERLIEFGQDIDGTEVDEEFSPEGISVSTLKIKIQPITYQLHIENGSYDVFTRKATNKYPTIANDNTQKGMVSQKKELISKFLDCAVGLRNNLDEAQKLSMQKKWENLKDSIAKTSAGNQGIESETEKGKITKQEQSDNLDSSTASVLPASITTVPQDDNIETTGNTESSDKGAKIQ
UniProt Q12432: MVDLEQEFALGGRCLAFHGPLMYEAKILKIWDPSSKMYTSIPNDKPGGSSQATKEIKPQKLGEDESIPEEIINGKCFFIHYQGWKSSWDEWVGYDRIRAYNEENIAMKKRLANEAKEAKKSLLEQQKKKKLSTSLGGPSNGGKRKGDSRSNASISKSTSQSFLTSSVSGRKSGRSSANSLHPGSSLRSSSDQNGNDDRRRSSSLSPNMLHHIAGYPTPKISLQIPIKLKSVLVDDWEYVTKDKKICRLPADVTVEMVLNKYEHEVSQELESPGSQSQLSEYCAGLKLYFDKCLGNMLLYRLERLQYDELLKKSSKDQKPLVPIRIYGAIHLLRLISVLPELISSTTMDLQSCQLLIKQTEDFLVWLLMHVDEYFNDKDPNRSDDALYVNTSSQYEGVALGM

What was measured:
[1] = target: T1, Rco1 (Saccharomyces cerevisiae) (UniProt Q04779); experiment: cryo-EM structure; purified apo Rpd3S complex; 3D map of 3.5 Å; both purified
T1 sequence: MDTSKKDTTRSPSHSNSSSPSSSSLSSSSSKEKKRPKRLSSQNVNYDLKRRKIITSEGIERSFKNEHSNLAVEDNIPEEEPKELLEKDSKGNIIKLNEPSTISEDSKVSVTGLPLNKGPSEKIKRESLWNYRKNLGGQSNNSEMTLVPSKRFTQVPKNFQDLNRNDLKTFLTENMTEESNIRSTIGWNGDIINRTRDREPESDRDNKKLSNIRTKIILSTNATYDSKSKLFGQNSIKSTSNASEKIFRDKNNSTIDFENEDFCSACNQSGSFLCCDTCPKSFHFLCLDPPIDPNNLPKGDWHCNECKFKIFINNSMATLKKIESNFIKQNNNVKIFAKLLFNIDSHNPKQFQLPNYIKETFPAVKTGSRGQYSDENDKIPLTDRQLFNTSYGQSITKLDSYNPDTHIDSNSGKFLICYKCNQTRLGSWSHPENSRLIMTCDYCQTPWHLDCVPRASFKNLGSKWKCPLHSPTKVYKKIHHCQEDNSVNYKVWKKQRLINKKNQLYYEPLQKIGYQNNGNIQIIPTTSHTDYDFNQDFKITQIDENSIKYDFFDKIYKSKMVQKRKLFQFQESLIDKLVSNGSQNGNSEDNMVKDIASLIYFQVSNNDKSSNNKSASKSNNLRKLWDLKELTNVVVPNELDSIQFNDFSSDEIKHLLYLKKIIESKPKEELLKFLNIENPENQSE

[2] = target: Sin3 (residues 214–1536) (Saccharomyces cerevisiae) (UniProt P22579); experiment: SEC-MALS; 100 μL Rpd3S at 40 μM, Superdex 200 5/150, 20 mM Tris-HCl pH 7.5, 150 mM NaCl; both purified
[3] = target: Sin3 (residues 214–1536) (Saccharomyces cerevisiae) (UniProt P22579); experiment: cryo-EM structure; purified apo Rpd3S complex; 3D map of 3.5 Å; both purified
[4] = target: T2, Rpd3 (Saccharomyces cerevisiae) (UniProt P32561); experiment: as above
T2 sequence: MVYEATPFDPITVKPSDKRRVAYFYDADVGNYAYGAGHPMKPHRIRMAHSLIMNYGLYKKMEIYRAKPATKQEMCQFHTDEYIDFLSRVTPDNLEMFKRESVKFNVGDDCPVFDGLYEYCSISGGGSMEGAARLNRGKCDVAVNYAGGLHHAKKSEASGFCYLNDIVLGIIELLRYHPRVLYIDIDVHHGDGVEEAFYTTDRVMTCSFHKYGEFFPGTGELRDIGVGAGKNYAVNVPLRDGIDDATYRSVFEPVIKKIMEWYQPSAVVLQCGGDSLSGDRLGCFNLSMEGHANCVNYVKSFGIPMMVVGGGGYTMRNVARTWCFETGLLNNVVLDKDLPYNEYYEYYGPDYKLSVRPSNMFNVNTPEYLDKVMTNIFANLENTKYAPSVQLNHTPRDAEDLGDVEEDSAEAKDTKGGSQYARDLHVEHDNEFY

[5] = target: Sin3 (residues 214–1536) (Saccharomyces cerevisiae) (UniProt P22579); experiment: cross-linking; XL-MS: purified apo Rpd3S, 1.5 mg/mL in HEPES buffer, 1 mM BS3, room temperature, 30 min; LC-MS/MS, pLink2; both purified

Measured: binding

Eaf3 (from UniProt Q12432 1-401)
binds: [1] | [2]

B1: Rco1 (natural protein, Saccharomyces cerevisiae, UniProt Q04779 1-684, looked up)
chain: MDTSKKDTTRSPSHSNSSSPSSSSLSSSSSKEKKRPKRLSSQNVNYDLKRRKIITSEGIERSFKNEHSNLAVEDNIPEEEPKELLEKDSKGNIIKLNEPSTISEDSKVSVTGLPLNKGPSEKIKRESLWNYRKNLGGQSNNSEMTLVPSKRFTQVPKNFQDLNRNDLKTFLTENMTEESNIRSTIGWNGDIINRTRDREPESDRDNKKLSNIRTKIILSTNATYDSKSKLFGQNSIKSTSNASEKIFRDKNNSTIDFENEDFCSACNQSGSFLCCDTCPKSFHFLCLDPPIDPNNLPKGDWHCNECKFKIFINNSMATLKKIESNFIKQNNNVKIFAKLLFNIDSHNPKQFQLPNYIKETFPAVKTGSRGQYSDENDKIPLTDRQLFNTSYGQSITKLDSYNPDTHIDSNSGKFLICYKCNQTRLGSWSHPENSRLIMTCDYCQTPWHLDCVPRASFKNLGSKWKCPLHSPTKVYKKIHHCQEDNSVNYKVWKKQRLINKKNQLYYEPLQKIGYQNNGNIQIIPTTSHTDYDFNQDFKITQIDENSIKYDFFDKIYKSKMVQKRKLFQFQESLIDKLVSNGSQNGNSEDNMVKDIASLIYFQVSNNDKSSNNKSASKSNNLRKLWDLKELTNVVVPNELDSIQFNDFSSDEIKHLLYLKKIIESKPKEELLKFLNIENPENQSE
notes: Rco1, Saccharomyces cerevisiae; two copies (Rco1A, Rco1B) stand in the Rpd3S complex; also called Rco1A; Rco1B; source: High Five insect cells (baculovirus), co-expressed with the other Rpd3S subunits; purified as part of the complex (streptavidin column, Resource Q, gel filtration); not shown: double StrepII, C-terminal, kept
binds: [2] | [3] | [4] | [5]
